Measured values taken from publication PMC3250481.
No constants are given. Whether binding was seen depends on the method and setting. Binding seen in cells or lysates may run through a third protein. Some entries that bind do so weakly or less than the wild type. Where a sequence is shown, tags or fusion partners need not be part of it.

Amino acid sequences for entries named in this document (tags omitted).
UniProt P23770: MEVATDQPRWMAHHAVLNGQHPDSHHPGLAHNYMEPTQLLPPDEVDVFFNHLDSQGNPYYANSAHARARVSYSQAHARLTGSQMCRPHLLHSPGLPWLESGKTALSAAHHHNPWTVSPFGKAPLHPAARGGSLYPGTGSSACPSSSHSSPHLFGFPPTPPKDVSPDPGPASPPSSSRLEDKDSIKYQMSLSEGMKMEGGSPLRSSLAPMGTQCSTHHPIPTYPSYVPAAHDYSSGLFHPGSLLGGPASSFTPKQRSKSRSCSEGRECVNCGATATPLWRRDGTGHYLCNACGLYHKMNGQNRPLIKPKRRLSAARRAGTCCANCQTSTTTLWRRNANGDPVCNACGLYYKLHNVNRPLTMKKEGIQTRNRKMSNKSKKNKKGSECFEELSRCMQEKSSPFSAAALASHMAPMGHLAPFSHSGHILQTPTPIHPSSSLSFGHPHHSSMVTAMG

Target: T1, MYC epitope tagged wild type Xenopus FOG (xFOG-MYC) (Xenopus laevis) (UniProt Q9I9K0)
T1 sequence: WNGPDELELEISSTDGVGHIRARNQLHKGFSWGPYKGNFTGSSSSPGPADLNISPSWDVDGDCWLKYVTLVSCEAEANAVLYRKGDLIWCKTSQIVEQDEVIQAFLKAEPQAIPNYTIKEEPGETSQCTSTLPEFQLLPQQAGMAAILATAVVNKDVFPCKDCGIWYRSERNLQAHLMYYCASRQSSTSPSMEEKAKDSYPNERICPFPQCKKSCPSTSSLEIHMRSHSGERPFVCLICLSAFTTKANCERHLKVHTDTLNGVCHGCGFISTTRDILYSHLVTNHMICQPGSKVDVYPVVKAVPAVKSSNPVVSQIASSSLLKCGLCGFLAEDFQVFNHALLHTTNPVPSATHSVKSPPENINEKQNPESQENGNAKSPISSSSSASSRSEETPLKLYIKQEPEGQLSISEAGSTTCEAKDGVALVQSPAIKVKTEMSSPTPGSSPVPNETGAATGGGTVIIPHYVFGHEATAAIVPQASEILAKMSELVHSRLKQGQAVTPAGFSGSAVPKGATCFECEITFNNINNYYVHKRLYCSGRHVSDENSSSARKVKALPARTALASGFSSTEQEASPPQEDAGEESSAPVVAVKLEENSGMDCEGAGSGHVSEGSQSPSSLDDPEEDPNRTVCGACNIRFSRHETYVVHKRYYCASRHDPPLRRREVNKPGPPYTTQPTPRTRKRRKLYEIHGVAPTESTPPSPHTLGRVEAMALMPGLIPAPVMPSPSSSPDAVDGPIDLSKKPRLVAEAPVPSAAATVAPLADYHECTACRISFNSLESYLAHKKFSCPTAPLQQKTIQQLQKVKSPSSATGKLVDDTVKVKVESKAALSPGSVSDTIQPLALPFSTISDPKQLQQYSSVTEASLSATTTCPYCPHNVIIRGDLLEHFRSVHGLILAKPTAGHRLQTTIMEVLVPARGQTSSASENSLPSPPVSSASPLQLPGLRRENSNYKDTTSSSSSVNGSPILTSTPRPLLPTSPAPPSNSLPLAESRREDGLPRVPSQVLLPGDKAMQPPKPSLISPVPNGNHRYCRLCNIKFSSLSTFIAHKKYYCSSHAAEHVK
Assay: co-IP; HeLa cells transfected with 0.5 ug xGATA-2HA and 5.0 ug wild type or mutant xFOG-MYC; lysates after 24 hours; anti-MYC (9B11) overnight at 4 C, Protein G sepharose, four washes in binding buffer; blot with anti-HA

binding: binds
Substance: HA-tagged GATA-2 (xGATA-2HA) (from UniProt P23770 1-452)
